Test results: the supplement of paper PMC6411743
± gives the standard deviation of the averaged measurements. This is one part of the list.

Protein sequences, listed by entry. Tags and fused reporters are not part of them. Lines headed by an entry give the natural chain unless they say otherwise; changes in a name come on top.
UniProt Q9BPY3: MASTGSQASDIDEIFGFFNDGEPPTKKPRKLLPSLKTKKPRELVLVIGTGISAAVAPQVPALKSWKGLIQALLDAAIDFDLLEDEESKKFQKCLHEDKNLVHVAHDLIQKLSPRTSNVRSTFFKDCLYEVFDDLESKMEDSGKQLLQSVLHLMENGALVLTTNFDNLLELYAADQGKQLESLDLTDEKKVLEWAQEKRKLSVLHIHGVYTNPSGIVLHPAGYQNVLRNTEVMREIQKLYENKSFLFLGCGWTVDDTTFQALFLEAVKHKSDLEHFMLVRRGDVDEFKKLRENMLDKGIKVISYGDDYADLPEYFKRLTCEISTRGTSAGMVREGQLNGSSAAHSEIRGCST
UniProt P51957: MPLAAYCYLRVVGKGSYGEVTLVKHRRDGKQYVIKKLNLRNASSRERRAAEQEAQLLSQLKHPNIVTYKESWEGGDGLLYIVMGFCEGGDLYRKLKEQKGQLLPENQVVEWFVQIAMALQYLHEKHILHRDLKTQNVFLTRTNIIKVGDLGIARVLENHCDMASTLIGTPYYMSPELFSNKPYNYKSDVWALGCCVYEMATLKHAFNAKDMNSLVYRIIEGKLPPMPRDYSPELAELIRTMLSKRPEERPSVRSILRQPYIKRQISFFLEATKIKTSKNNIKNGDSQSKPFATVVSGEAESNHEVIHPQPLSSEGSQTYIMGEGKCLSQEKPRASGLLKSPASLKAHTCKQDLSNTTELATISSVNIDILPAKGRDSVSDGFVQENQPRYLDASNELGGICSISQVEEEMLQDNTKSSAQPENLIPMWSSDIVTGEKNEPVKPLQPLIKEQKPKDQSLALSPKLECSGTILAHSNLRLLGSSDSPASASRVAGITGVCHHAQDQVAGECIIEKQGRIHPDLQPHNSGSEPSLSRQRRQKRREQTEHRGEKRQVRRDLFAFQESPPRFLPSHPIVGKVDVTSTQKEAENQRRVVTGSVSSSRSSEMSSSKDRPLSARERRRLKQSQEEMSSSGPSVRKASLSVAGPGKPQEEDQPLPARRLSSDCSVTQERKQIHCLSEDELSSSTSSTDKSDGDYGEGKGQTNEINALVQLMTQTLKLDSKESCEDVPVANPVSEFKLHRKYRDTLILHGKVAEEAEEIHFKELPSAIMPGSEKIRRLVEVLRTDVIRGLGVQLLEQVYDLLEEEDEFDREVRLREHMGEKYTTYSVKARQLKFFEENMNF
UniProt Q53GL7: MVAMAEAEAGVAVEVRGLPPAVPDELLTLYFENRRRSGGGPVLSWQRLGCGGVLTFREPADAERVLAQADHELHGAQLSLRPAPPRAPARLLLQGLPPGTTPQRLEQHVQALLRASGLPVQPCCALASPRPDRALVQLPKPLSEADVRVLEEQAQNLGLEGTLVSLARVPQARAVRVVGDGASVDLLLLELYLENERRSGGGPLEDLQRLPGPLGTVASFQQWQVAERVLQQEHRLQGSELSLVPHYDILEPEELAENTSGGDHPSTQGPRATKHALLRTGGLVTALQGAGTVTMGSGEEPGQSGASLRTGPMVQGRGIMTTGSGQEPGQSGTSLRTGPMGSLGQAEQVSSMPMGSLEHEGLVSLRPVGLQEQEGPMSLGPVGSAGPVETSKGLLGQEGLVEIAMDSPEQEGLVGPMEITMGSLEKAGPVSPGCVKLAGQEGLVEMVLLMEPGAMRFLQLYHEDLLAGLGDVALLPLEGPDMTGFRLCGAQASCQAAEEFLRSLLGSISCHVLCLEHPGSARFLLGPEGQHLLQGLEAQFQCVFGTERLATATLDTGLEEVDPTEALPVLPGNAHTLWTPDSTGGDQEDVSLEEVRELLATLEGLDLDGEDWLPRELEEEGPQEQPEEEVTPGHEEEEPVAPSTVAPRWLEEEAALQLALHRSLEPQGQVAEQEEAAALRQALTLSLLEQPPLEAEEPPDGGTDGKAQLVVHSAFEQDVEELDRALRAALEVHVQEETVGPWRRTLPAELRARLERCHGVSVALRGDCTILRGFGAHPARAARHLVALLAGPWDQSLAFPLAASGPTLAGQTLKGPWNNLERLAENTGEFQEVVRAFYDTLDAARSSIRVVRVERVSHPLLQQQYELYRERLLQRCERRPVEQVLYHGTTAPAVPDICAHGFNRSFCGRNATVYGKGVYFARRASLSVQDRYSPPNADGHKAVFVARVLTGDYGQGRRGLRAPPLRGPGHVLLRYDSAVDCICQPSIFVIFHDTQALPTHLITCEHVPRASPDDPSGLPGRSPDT
UniProt O94868: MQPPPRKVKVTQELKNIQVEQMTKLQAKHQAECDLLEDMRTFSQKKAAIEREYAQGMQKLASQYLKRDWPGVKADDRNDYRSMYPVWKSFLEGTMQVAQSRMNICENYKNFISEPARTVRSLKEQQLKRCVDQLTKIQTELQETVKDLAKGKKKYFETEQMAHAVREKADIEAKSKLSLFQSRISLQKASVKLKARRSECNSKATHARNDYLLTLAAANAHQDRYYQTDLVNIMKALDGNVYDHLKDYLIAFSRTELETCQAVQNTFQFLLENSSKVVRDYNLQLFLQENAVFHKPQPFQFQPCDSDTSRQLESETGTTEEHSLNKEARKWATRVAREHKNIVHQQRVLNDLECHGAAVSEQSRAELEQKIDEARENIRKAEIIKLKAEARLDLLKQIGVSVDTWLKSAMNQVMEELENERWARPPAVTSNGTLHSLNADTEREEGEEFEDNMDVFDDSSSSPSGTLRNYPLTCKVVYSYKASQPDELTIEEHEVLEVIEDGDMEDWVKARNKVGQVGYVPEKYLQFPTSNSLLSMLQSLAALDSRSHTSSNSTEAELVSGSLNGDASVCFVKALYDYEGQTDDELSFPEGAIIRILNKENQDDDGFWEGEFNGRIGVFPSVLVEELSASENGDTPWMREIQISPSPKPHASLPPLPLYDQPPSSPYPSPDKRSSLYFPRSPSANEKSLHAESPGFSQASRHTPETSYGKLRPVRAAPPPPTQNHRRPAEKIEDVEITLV
UniProt Q15031: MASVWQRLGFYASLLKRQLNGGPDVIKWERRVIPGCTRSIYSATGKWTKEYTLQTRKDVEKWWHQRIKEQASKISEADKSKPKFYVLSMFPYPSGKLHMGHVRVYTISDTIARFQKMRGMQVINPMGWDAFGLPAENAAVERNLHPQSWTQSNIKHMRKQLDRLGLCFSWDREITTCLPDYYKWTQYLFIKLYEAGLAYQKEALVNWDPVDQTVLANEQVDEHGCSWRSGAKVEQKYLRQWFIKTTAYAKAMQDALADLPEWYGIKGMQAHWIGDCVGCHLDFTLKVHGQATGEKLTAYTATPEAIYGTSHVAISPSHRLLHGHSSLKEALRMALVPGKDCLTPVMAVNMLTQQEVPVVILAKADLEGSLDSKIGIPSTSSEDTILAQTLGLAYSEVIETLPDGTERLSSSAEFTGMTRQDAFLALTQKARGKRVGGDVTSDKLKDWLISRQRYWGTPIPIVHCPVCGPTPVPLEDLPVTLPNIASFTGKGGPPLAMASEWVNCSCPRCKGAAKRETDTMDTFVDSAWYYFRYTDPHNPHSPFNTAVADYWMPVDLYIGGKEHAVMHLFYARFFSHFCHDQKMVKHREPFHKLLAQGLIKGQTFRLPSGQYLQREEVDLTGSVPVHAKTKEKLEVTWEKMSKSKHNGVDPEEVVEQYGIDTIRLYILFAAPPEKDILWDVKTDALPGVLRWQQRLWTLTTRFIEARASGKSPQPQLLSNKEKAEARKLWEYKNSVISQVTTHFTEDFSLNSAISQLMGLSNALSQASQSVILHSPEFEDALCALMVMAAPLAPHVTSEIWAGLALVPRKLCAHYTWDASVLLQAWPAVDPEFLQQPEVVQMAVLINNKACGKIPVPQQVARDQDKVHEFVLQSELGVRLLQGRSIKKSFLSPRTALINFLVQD
UniProt Q8IUX1: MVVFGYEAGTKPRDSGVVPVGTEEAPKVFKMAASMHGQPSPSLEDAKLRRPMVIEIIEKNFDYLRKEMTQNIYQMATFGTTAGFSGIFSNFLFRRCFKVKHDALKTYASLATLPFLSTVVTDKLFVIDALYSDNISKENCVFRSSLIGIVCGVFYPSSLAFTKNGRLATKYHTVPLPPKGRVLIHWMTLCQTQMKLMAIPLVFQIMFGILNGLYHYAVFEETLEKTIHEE
UniProt P15586: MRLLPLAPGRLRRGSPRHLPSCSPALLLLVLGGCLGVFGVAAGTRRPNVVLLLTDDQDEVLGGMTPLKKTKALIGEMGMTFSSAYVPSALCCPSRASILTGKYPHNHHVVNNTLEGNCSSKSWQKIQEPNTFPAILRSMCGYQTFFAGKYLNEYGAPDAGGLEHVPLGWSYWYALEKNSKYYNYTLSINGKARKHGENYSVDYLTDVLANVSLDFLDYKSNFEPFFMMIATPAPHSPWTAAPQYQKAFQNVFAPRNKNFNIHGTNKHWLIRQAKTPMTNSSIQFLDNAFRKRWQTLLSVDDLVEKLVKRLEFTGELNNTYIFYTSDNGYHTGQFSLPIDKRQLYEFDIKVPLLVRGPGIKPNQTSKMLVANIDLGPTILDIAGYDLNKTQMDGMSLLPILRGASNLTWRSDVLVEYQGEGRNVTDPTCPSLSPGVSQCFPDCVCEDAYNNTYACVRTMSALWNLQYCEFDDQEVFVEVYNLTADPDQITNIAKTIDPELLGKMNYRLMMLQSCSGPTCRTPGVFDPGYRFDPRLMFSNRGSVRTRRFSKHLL
UniProt O00462: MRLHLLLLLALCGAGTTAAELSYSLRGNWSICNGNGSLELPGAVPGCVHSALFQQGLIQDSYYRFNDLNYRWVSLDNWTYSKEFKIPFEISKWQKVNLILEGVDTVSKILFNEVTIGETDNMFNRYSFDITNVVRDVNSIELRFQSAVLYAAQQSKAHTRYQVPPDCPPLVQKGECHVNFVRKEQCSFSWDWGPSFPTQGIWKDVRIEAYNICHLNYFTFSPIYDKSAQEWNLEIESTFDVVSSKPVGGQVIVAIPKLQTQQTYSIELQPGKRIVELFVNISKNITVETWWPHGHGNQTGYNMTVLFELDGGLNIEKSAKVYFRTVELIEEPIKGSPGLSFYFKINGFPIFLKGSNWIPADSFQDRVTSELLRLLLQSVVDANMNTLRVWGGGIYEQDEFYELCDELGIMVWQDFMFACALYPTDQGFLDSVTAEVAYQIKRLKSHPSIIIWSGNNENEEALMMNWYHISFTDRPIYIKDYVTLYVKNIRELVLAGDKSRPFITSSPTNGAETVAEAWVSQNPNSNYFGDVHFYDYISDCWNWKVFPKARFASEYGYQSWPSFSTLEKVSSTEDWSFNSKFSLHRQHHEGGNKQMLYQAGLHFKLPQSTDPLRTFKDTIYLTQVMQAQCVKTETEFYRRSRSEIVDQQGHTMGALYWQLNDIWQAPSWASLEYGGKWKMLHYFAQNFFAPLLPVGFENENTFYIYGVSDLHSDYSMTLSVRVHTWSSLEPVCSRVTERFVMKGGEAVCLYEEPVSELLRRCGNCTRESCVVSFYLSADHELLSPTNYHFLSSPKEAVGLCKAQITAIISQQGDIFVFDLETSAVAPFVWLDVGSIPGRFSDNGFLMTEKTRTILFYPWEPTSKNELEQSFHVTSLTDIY
UniProt Q6P444: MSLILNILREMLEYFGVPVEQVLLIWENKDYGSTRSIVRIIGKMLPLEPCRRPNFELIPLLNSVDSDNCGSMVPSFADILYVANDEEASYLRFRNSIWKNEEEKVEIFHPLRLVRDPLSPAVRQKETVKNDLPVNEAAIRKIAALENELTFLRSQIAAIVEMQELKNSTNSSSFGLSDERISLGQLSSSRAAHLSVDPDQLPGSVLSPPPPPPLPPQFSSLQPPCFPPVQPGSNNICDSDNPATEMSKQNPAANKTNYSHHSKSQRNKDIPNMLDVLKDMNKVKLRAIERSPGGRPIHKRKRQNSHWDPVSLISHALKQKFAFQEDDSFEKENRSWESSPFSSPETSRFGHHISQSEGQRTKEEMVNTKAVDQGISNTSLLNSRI
UniProt Q5HYJ3: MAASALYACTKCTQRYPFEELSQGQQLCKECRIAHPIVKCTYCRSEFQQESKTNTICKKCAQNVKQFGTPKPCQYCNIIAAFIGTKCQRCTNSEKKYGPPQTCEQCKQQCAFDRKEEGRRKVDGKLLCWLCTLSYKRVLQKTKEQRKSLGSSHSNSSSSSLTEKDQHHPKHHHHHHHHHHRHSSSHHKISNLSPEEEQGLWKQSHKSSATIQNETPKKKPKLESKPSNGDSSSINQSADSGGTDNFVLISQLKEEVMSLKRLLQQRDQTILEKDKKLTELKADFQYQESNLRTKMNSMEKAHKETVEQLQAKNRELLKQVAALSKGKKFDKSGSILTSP
UniProt Q15631: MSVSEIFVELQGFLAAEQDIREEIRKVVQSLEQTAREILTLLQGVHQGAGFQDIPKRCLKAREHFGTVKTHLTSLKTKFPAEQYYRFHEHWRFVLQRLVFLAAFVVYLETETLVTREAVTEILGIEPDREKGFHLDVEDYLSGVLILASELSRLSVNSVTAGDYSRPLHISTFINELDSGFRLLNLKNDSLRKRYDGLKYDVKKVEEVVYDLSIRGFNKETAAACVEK
UniProt P61803: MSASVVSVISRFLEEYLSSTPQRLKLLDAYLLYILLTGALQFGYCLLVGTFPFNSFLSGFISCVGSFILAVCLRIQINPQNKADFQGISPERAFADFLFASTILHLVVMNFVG

Compound: Nc1nc2c(ncn2[C@@H]2O[C@H](COP(=O)(O)OP(=O)(O)OP(=O)(O)O)[C@@H](O)[C@H]2O)c(=O)[nH]1 [guanosine triphosphate]
Assay: NP40-soluble protein abundance relative to vehicle (solubility fold change) (ratio); higher = more soluble protein in presence of GTP
How it was run: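 Jurkat crude lysate prepared with a Dounce homogeniser was treated at eight concentrations spanning 0.1 to 10 mM, 10 min at room temperature then 3 min at 37 °C. Solubilisation with 0.8% NP40 and benzonase and ultracentrifugation preceded TMT labelling of the supernatant for LC-MS/MS. Fold change against the detergent-processed vehicle was determined per replicate from vsn-normalised intensities, across three independent experiments.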

Target | NP40-soluble protein abundance (concentration: 0.1mM) | NP40-soluble protein abundance (concentration: 0.5mM) | NP40-soluble protein abundance (concentration: 1mM) | NP40-soluble protein abundance (concentration: 2mM) | NP40-soluble protein abundance (concentration: 4mM) | NP40-soluble protein abundance (concentration: 6mM) | NP40-soluble protein abundance (concentration: 8mM) | NP40-soluble protein abundance (concentration: 10mM)
E9PMJ2 and related entries (UniProt Q9BPY3) | 1.01 ± 0.013 | 0.982 ± 0.061 | 0.991 ± 0.09 | 1 ± 0.07 | 1.01 ± 0.012 | 0.939 ± 0.085 | 0.933 ± 0.059 | 0.9487 ± 0.0082
E7EX48 and related entries (UniProt P51957) | 1.01 ± 0.097 | 0.987 ± 0.21 | 0.961 ± 0.21 | 1.01 ± 0.2 | 0.986 ± 0.21 | 0.957 ± 0.23 | 0.985 ± 0.25 | 1.06 ± 0.25
F5H1I4 and related entries (UniProt Q8NG08) | 1.05 ± 0.14 | 1.03 ± 0.099 | 1.02 ± 0.087 | 1.03 ± 0.13 | 0.997 ± 0.16 | 0.988 ± 0.2 | 0.932 ± 0.086 | 0.913 ± 0.036
E9PGT3 and related entries (UniProt Q15418) | 1.02 ± 0.062 | 1.06 ± 0.066 | 0.99 ± 0.057 | 0.976 ± 0.071 | 0.995 ± 0.089 | 0.962 ± 0.061 | 0.941 ± 0.019 | 0.892 ± 0.07
E9PMC9 and related entries (UniProt Q7Z589) | 1.07 ± 0.1 | 1.11 ± 0.017 | 1.23 ± 0.083 | 1.34 ± 0.09 | 1.48 ± 0.14 | 1.49 ± 0.2 | 1.6 ± 0.3 | 1.68 ± 0.3
E9PK67 and related entries (UniProt Q53GL7) | 1.05 ± 0.097 | 1.06 ± 0.12 | 0.954 ± 0.041 | 1.01 ± 0.15 | 0.982 ± 0.12 | 0.935 ± 0.11 | 0.949 ± 0.019 | 0.949 ± 0.08
G3V0I5 and related entries (UniProt P49821) | 1.07 ± 0.12 | 1.1 ± 0.15 | 1.09 ± 0.15 | 1.16 ± 0.19 | 1.15 ± 0.19 | 1.14 ± 0.2 | 1.13 ± 0.17 | 1.11 ± 0.18
E9PG19 and related entries (UniProt O94868) | 1.04 ± 0.034 | 1.01 ± 0.029 | 1.02 ± 0.018 | 0.985 ± 0.04 | 0.987 ± 0.083 | 1.01 ± 0.076 | 0.99 ± 0.025 | 0.9803 ± 0.0073
F5H6I6 and related entries (UniProt Q86VP6) | 0.978 ± 0.027 | 0.983 ± 0.045 | 0.926 ± 0.035 | 0.932 ± 0.067 | 0.934 ± 0.038 | 0.931 ± 0.049 | 0.902 ± 0.021 | 0.905 ± 0.025
E9PHM2 and related entries (UniProt Q15031) | 1.04 ± 0.018 | 1.04 ± 0.045 | 0.918 ± 0.0099 | 0.94 ± 0.037 | 0.905 ± 0.01 | 0.916 ± 0.022 | 0.884 ± 0.042 | 0.852 ± 0.06
E9PNP3 and related entries (UniProt Q9H7C9) | 0.931 ± 0.12 | 0.861 ± 0.042 | 1 ± 0.14 | 0.939 ± 0.057 | 0.953 ± 0.1 | 0.953 ± 0.083 | 0.914 ± 0.12 | 0.956 ± 0.063
E9PJQ6 and related entries (UniProt Q8IUX1) | 1.06 ± 0.085 | 1.07 ± 0.11 | 1.05 ± 0.11 | 1.03 ± 0.13 | 1.06 ± 0.058 | 1.04 ± 0.083 | 1.11 ± 0.15 | 1.05 ± 0.11
F6S8M0 and related entries (UniProt P15586) | 0.8721 ± 0.0085 | 0.872 ± 0.023 | 0.911 ± 0.03 | 0.89 ± 0.03 | 0.874 ± 0.017 | 0.893 ± 0.018 | 0.868 ± 0.077 | 0.928 ± 0.057
E9PFW2 and related entries (UniProt O00462) | 1.04 ± 0.034 | 1.03 ± 0.088 | 0.962 ± 0.088 | 0.926 ± 0.1 | 1.03 ± 0.031 | 0.891 ± 0.085 | 1.017 ± 0.009 | 0.984 ± 0.12
E7EQL8 and related entries (UniProt Q96RT7) | 0.971 ± 0.096 | 0.9629 ± 0.0018 | 1.09 ± 0.045 | 1.28 ± 0.086 | 1.23 ± 0.42 | 1.24 ± 0.17 | 1.21 ± 0.33 | 1.16 ± 0.37
E9PE17 and related entries (UniProt Q9Y2R5+I3L0E3+E9PE17) | 0.987 ± 0.04 | 1.06 ± 0.13 | 1.15 ± 0.21 | 1.25 ± 0.29 | 1.28 ± 0.28 | 1.2 ± 0.26 | 1.14 ± 0.28 | 1.13 ± 0.28
E7ETD6 and related entries (UniProt Q12830) | 1 ± 0.025 | 1.04 ± 0.033 | 1.11 ± 0.0085 | 1.14 ± 0.024 | 1.18 ± 0.046 | 1.18 ± 0.036 | 1.27 ± 0.15 | 1.28 ± 0.14
E9PLK3 and related entries (UniProt P55786) | 1.01 ± 0.048 | 1.03 ± 0.043 | 0.913 ± 0.034 | 0.92 ± 0.021 | 0.9 ± 0.02 | 0.891 ± 0.0091 | 0.852 ± 0.074 | 0.834 ± 0.075
G3V1P5 and related entries (UniProt Q96RN5) | 0.81487 ± 9.8e-05 | 0.933 ± 0.044 | 0.818 ± 0.057 | 0.958 ± 0.041 | 0.956 ± 0.07 | 0.948 ± 0.034 | 0.877 ± 0.046 | 1.08 ± 0.079
E9PN39 and related entries (UniProt Q6P444) | 1.01 ± 0.15 | 0.987 ± 0.092 | 1.03 ± 0.088 | 0.998 ± 0.2 | 1.04 ± 0.12 | 1.03 ± 0.083 | 1.1 ± 0.17 | 0.942 ± 0.14
F5GX09 and related entries (UniProt Q5HYJ3) | 0.971 ± 0.1 | 0.966 ± 0.074 | 0.933 ± 0.083 | 0.913 ± 0.086 | 0.891 ± 0.08 | 0.897 ± 0.094 | 0.924 ± 0.092 | 0.961 ± 0.066
F5GXE4 and related entries (UniProt O95260) | 0.995 ± 0.01 | 1.01 ± 0.012 | 0.963 ± 0.028 | 0.935 ± 0.039 | 0.977 ± 0.11 | 0.97 ± 0.049 | 0.963 ± 0.025 | 0.964 ± 0.041
F5H039 and related entries (UniProt Q9NQX3) | 0.979 ± 0.053 | 0.991 ± 0.023 | 0.987 ± 0.042 | 0.982 ± 0.046 | 0.981 ± 0.033 | 0.991 ± 0.034 | 1 ± 0.057 | 0.978 ± 0.065
E9PGT1 and related entries (UniProt Q15631) | 0.933 ± 0.018 | 0.965 ± 0.027 | 0.911 ± 0.035 | 0.909 ± 0.035 | 0.902 ± 0.037 | 0.895 ± 0.048 | 0.865 ± 0.058 | 0.905 ± 0.031
F5GXX5 and related entries (UniProt P61803) | 0.93 ± 0.1 | 0.896 ± 0.07 | 0.863 ± 0.13 | 0.908 ± 0.043 | 0.886 ± 0.041 | 0.823 ± 0.065 | 0.794 ± 0.12 | 0.825 ± 0.072

Part of the list above, field by field.
E9PE17 and related entries (UniProt Q9Y2R5+I3L0E3+E9PE17)
  NP40-soluble protein abundance (concentration: 0.1mM): 0.987 ± 0.04; NP40-soluble protein abundance (concentration: 0.5mM): 1.06 ± 0.13; NP40-soluble protein abundance (concentration: 1mM): 1.15 ± 0.21; NP40-soluble protein abundance (concentration: 2mM): 1.25 ± 0.29; NP40-soluble protein abundance (concentration: 4mM): 1.28 ± 0.28; NP40-soluble protein abundance (concentration: 6mM): 1.2 ± 0.26; NP40-soluble protein abundance (concentration: 8mM): 1.14 ± 0.28; NP40-soluble protein abundance (concentration: 10mM): 1.13 ± 0.28
E7ETD6 and related entries (UniProt Q12830)
  NP40-soluble protein abundance (concentration: 0.1mM): 1 ± 0.025; NP40-soluble protein abundance (concentration: 0.5mM): 1.04 ± 0.033; NP40-soluble protein abundance (concentration: 1mM): 1.11 ± 0.0085; NP40-soluble protein abundance (concentration: 2mM): 1.14 ± 0.024; NP40-soluble protein abundance (concentration: 4mM): 1.18 ± 0.046; NP40-soluble protein abundance (concentration: 6mM): 1.18 ± 0.036; NP40-soluble protein abundance (concentration: 8mM): 1.27 ± 0.15; NP40-soluble protein abundance (concentration: 10mM): 1.28 ± 0.14
